Values quoted from earlier work in US7592457B2 (Korea Research Institute of Chemical Technology, priority 2004, dated 2009).
At least one structure is not confirmed: it was looked up by name or label, or the drawing left a doubt.

Settings: literature; cited from earlier work

In the case of `COc1ccc(S(=O)(=O)Nc2cc(Br)cc(F)c2Br)cc1N1CCNCC1` [SB-357134], the “bioavailability (in words)” value is listed as “excellent oral bioavailability”.
